# Results are given in words; binding and its absence hold for the method and conditions named. In cells and extracts the contact can be indirect. Binding can be weak; no strength is given.
# Protein sequences, listed by entry. Tags and fused reporters are not part of them. Lines headed by an entry give the natural chain unless they say otherwise; changes in a name come on top.
# UniProt Q6ZPK0: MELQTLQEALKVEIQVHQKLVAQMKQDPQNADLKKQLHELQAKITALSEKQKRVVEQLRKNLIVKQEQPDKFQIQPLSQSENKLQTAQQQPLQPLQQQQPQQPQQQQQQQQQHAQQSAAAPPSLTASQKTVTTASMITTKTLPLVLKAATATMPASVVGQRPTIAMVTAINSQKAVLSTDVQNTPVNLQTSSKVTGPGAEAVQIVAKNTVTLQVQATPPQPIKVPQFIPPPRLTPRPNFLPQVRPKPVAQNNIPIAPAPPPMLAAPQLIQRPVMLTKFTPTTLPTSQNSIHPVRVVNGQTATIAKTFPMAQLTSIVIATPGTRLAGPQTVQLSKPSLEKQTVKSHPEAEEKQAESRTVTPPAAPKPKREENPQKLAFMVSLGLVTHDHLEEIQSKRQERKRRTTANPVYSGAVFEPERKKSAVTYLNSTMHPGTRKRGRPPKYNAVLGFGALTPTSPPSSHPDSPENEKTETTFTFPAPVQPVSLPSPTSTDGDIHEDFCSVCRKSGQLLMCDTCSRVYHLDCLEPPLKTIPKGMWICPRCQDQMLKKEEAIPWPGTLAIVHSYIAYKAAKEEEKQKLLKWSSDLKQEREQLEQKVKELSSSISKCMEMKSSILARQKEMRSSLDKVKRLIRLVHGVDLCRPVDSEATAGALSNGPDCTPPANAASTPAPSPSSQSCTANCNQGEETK
# UniProt P70288: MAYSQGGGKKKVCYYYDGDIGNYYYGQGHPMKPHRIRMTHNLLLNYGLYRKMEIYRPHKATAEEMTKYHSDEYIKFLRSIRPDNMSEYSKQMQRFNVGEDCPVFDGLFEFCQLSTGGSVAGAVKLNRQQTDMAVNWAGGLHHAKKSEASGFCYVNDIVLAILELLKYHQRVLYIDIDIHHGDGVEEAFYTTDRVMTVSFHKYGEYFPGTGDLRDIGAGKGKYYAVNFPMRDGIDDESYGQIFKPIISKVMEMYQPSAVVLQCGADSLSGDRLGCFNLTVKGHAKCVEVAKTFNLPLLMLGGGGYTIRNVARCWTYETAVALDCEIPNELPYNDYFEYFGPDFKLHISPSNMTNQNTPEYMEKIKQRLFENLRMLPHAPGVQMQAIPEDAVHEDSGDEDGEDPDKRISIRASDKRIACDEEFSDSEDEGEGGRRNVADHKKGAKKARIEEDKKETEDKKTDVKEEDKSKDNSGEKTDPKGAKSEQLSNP
# Molecular target: canonical PHF21A (PHF21A-c), endogenous in MEF (mouse (endogenous in MEF)) (UniProt Q6ZPK0)
# Assay: co-IP
substance,measurement,value
"HDAC2, endogenous (from UniProt P70288 1-488) (enzyme)",binding,binds
